Test results published in PubChem BioAssay AID687031 (Broad Institute, 2013).
Among all 1,400 compounds or so, about 50 (4%) were called active.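 How the source made its calls: active means fitted curve reaches 30% CPE protection at or below the top valid dose, with every test run called active; inconclusive means test runs disagree, some active and some not; inactive means every test run inactive, including effects in the wrong direction.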 The list shows a part of the results. Measured potencies and affinities stand elsewhere.

Experiment: antiviral rescue of DENV2-infected BHK-21 cells – cell-based, ATP luminescence, cherry-pick, dose response (AID 687031);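 further: 0% = infected DMSO wells and 100% = uninfected cell wells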
Conditions: BHK-21 DENV2 CPE protection, 5 d; at 19.5 µM (top of the series) unless noted

CPE protection (higher = active), inactive:
O=C(C[C@H]1CC[C@H]2[C@@H](COC[C@H](O)CN2C(=O)Nc2ccc(Cl)cc2)O1)NCC1CC1 -2.79%, CN(CC(=O)Nc1ccccc1C(=O)NC1CC1)Cc1ccccc1F 28.4%, C[C@H](CO)N1C[C@H](C)[C@@H](CN(C)Cc2ccc3c(c2)OCO3)OCCCC[C@H](C)Oc2ccc(N(C)C)cc2C1=O -1.48%, CCNC(=O)C[C@H]1CC[C@H]2[C@@H](COC[C@@H](O)CN2Cc2ccc(Cl)c(Cl)c2)O1 14.9%, CC(=O)Nc1cccc(/C(C)=N/NC(=O)c2cccc(S(=O)(=O)N3CCCC3)c2)c1 3.82%, OC(CN1CCN(c2cccc(Cl)c2)CC1)c1ccc(F)cc1 (centres undefined) 8.73%, C[C@H](CO)N1C[C@H](C)[C@H](CN(C)C)Oc2ncc(C#CC3CC3)cc2C1=O 8.52%, O=C(C1CCOCC1)N1C[C@@H]2[C@H](c3ccccc31)[C@H](CO)N2C(=O)c1ccccc1 -12.7%, N#Cc1ccc(-c2ccc([C@@H]3[C@@H]4CN(Cc5cocn5)C[C@H]3N4)cc2)cc1 5.15% [at 21 µM], O=C(CN1CCN(C(=O)C2CCC2)CC1)Nc1ccc(F)cc1 -35.6%, Cc1ccc(Cn2cc(CN3CC(N(C)C)CS3(=O)=O)nn2)cc1 (centres undefined) 14%, CC(C)(C)N(Cc1ccccc1)C(=O)COC(=O)C1CCN(c2ccc(C(F)(F)F)cn2)CC1 -7.35%, COc1ccc2c3c(n(C)c2c1)[C@H](CO)N(C(=O)Nc1ccccc1F)CC31CN(C)C1 10.3% [at 21 µM], CCCNC(=O)C[C@H]1CC[C@@H]2[C@H](COC[C@H](O)CN2C(=O)CC)O1 36.8%, CCc1cc(=O)oc2cc(OCC(=O)NC3CC(C)(C)NC(C)(C)C3)ccc12 3.18%, O=C(NCCS(=O)(=O)N1CCN(c2ccccc2)CC1)C1CC1 14.1%, O=C(NCCCC1CCCC1)C1CCC(=O)N(Cc2cccc(C(F)(F)F)c2)C1 (centres undefined) -1.57%, CC(C)c1ccc(NC2CCCN(C(=O)c3cccc(N4CCNC4=O)c3)C2)cc1 (centres undefined) -1.41%, OC(COc1ccc(Cl)cc1Cl)Cn1ccnc1 (centres undefined) 2.84%, CCOC(=O)N1CCC(NC(=O)c2cccc3c2C(=O)N(CCOC)C3)CC1 8.32%, O=C(NCc1ccccn1)C(=O)NCC1OCCN1S(=O)(=O)c1ccc(Br)cc1 (centres undefined) -4.64%, CCCCNC(=O)c1onc(CS(=O)(=O)c2ccccn2)c1C(=O)NCCCC -9.41%, CCOc1ccccc1-c1nnc(CS(=O)(=O)c2ccccc2)o1 -7.93%, COc1ccc(C(CNS(=O)(=O)c2ccc(NC(C)=O)c(OC)c2)N2CCCC2)cc1 (centres undefined) -7.25%, CC(C)OC(=O)N(C)C[C@@H]1OCc2cn(nn2)CCCC(=O)N([C@H](C)CO)C[C@@H]1C -9.76%, OC1(c2ccc(Cl)cc2)CCN(Cc2c[nH]c3ccccc23)CC1 24.7%, CN1C(C(=O)NCc2ccc(OC(F)(F)F)cc2)CC2Cn3c(nc4ccccc43)C21 (centres undefined) -15.3%, CC12CCC(=O)N1C(C(=O)Nc1nc(-c3ccccc3)cs1)CS2 (centres undefined) -9.64%, Cc1ccc(C(=O)O/N=C(\N)c2ccccn2)cc1 23.3%, CCCC(=O)Nc1ccc2nn(-c3ccc(OC)cc3)nc2c1 -9.23%, COc1ccc(C(=O)N2CCN(C3CCCCC3)CC2)cc1OC 11.6%, CCCN1[C@H](C(=O)NCC(F)(F)F)[C@@H](CO)[C@@H]2Cn3c(ccc(-c4ccccc4)c3=O)[C@@H]21 9.56%, CCOc1ccc(NC(=O)Cc2ccc(S(=O)(=O)N3CCOCC3)s2)cc1OCC -6.85%, O=C(C[C@H]1CC[C@H]2[C@@H](COC[C@@H](O)CN2Cc2cccc(C(F)(F)F)c2)O1)NCc1ccc(F)cc1 9.51%, COc1ccc2ccccc2c1CNC(C)c1ccccc1 (centres undefined) -19.4%, COCCNC(=O)C1(C)CCCN(C(=O)c2ccccc2)C1 (centres undefined) -6.95%, O=C(NCc1ccccc1)C(c1ccncc1)n1c(=O)c(-c2ccccc2)nc2ccccc21 (centres undefined) -4.2%, COC(=O)[C@]12CCCCC=C1N(Cc1cccc3ccccc13)C(=O)[C@H](CC(=O)N1CCOCC1)C2 4.23%, COc1ccc(C(C(=O)NCc2ccccc2)n2c(-c3ccncc3)nc3ccccc32)cc1 (centres undefined) 10.5%, O=C(C[C@@H]1CC[C@@H]2[C@H](COC[C@H](O)CN2Cc2cccc(Cl)c2)O1)N1CCOCC1 32.2%, N#Cc1c(Nc2ccccc2)[n+]([O-])c2ccc(Cl)cc2[n+]1[O-] -32.8%, CCNC(=O)C[C@H]1CC[C@@H]2[C@H](COC[C@H](O)CN2Cc2ccc(Cl)c(Cl)c2)O1 12.1%, COc1ccc(CC(=O)OCC(=O)NCCNC(=O)COC(=O)Cc2ccc(OC)cc2)cc1 10.7%, Cc1ccccc1S(=O)(=O)N1CC[C@H]2[C@@H](CO)N(C)c3ccc(Br)cc3[C@H]21 2.06%, C[C@@H]1CN([C@H](C)CO)C(=O)c2cc(C#Cc3ccc(F)cc3)cnc2O[C@@H]1CN(C)C 24.7%, Cc1ccc2ccc(C(Nc3ccccc3)c3ccccc3)c(O)c2n1 (centres undefined) -6.24%, Cc1nccn1CC(O)COc1ccc(Cl)cc1Cl (centres undefined) -6.74%, COc1ccc(NC(=O)N(C)C[C@H]2OCCCC[C@@H](C)Oc3ccc(NS(C)(=O)=O)cc3C(=O)N([C@H](C)CO)C[C@H]2C)cc1 11.2%, CNC(=O)C[C@H]1CC[C@@H]2[C@H](COC[C@@H](O)CN2C(=O)Nc2ccc3c(c2)OCO3)O1 13%
